Data taken from patent EP0702551B1, “COMPOSITIONS AND METHODS FOR REPARATION AND PREVENTION OF FIBROTIC LESIONS” (MARGOLIN, Solomon B., priority 1993, dated 1994).
Marks after values point to notes of the source that are not given here.

Tested on: CYCLOPHOSPHAMIDE-INDUCED IN[…]
Assay: Cyclophosphamide-induced interstitial fibrosis in mice
Format: in vivo
Settings: GROUP IV: 500 mg/kg/day p.o., saline, no cyclophosphamide
From the text: In mice, pulmonary fibrosis induced with cyclophosphamide […] and is know to produce pulmonary fibrosis in patients as a side effect.

## Cc1ccc(=O)n(-c2ccccc2)c1 [pirfenidone, 5-methyl-1-phenyl-2-(1H) pyridone]
  Lung Dry Wt.: 39.0+/-2.8** Mg.
  Lung FIBROSIS Scores (N/N), incidence of scores 3.0 or less: 5/5
Scoring 0 through 6
  Lung FIBROSIS Scores: 0.68+/-0.35
